Data source: PubChem BioAssay AID1671195 (Yale University, 2021)
In all, the deposit lists about 22,000 reagents; below is a part drawn at random. Of all reagents, about 1,510 (6.9%) were called active. 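Active includes knockdowns raising or lowering LDL uptake; positive z-scores mean more uptake, negative mean less.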

Screen: 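Genes whose knockdown alters LDL uptake in liver cancer cells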 (primary screen)
Cells: human Huh7 hepatoma cells
Reagents: siRNA pool against human genes, 18 nM
Duration: about 2 to 2.5 days of knockdown, then 8 h LDL uptake
Treatment: DiI-labelled LDL at 30 µg/ml for 8 h, in lipoprotein-deficient serum medium
Measured: 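Per-cell DiI-LDL intensity by automated imaging; well means scaled to the plate median and given as a robust z-score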
Scale: robust z-score: higher = more LDL uptake after knockdown
Rule for the call: 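Active when two or more replicates show a robust z-score above 2 or below -2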

The first 9 records as a preview:
gene knocked down	robust z-score, replicate 1	robust z-score, replicate 2	robust z-score, replicate 3	Call
RPS27	0.357	-0.259	0.836	inactive
LAT2	0.436	1.29	-0.0994	inactive
A1BG	0.466	-0.719	-0.774	inactive
ZNF230	0.682	-0.168	-0.497	inactive
LOC389117 (retired record)	-0.0398	-0.0406	0.462	inactive
CALU	-0.682	-0.485	-0.158	inactive
LINC00486	-0.461	-0.519	-0.645	inactive
LOC441826 (retired record)	5.79	3.16	3.79	active
SFT2D3	-0.858	-1.2	-0.322	inactive

Main list, from the first entry:
gene knocked down	robust z-score, replicate 1	robust z-score, replicate 2	robust z-score, replicate 3	Call
RPS27	0.357	-0.259	0.836	inactive
LAT2	0.436	1.29	-0.0994	inactive
A1BG	0.466	-0.719	-0.774	inactive
ZNF230	0.682	-0.168	-0.497	inactive
LOC389117 (retired record)	-0.0398	-0.0406	0.462	inactive
CALU	-0.682	-0.485	-0.158	inactive
LINC00486	-0.461	-0.519	-0.645	inactive
LOC441826 (retired record)	5.79	3.16	3.79	active
SFT2D3	-0.858	-1.2	-0.322	inactive
RAPGEF2	1.23	1.29	1.74	inactive
PLA2G10	1.73	1.94	1.28	inactive
ELOVL1	0.0203	-0.0394	0.0564	inactive
RB1	-0.421	0.35	-0.653	inactive
NKIRAS2	0.497	0.401	1.46	inactive
CFTR	-1.36	-1.07	-1.27	inactive
PAK2	1.48	1.63	1.68	inactive
C8orf48	-1.34	-1.9	-1.36	inactive
DBP	-0.13	-1.11	-0.506	inactive
PUM3	-1.82	-0.687	1.53	inactive
CD34	-1.25	-0.967	-0.791	inactive
ASRGL1	1.07	0.686	0.393	inactive
LOC392226	2.53	2.79	2.42	active
SEMG2	-0.41	-0.422	-1.27	inactive
C8orf44	-0.974	0.807	-1.46	inactive
MATN2	2.03	1.55	1.54	inactive
NFATC1	-0.049	-0.0131	-0.0924	inactive
NFKBID	0.27	0.0151	-0.186	inactive
NME8	-0.155	-0.861	-0.177	inactive
ZNF512B	-1.64	-1.51	-1.26	inactive
LOC440752 (retired record)	0.0811	2.13	2.06	active
SLC2A11	-1.26	-1.17	-1.15	inactive
TTLL9	0.328	1.48	0.601	inactive
KIDINS220	0.14	1.36	0.214	inactive
RAB3GAP2	1.11	-0.0541	-0.0117	inactive
OGFOD3	1.05	0.477	1.15	inactive
ARHGAP11A	-0.763	-0.325	-0.279	inactive
ANKRD2	-1.99	-1.73	-1.74	inactive
TUBE1	0.3	0.863	0.837	inactive
CATSPERB	-0.404	0.273	-0.222	inactive
GPR6	-0.429	1.39	0.901	inactive
RFXAP	-1.18	-0.857	-0.828	inactive
ANAPC10	-0.423	0.61	-1.24	inactive
SMARCAD1	0.264	-0.766	-0.514	inactive
LOC400842 (retired record)	-0.121	-0.48	-0.591	inactive
COL18A1	1.15	1.59	1.49	inactive
COQ2	-0.801	-0.621	-0.625	inactive
HSD11B2	-2.14	-2.91	-2.48	active
VWA5A	-0.333	-0.169	0.121	inactive
SEH1L	1.05	0.778	0.486	inactive
BOLL	-0.604	-0.868	-0.24	inactive
TMEM123	1.18	0.428	0.00957	inactive
COL18A1-AS1	1.31	2.06	1.27	inactive
LOC400125 (retired record)	0.305	-0.879	-0.799	inactive
RASGEF1A	-0.452	-0.724	-0.412	inactive
GFI1B	0.342	0.365	-0.193	inactive
LOC388952 (retired record)	-0.549	-0.76	-0.698	inactive
FAM86B1	-0.153	-0.858	0.136	inactive
LOC440570	-0.264	-0.7	-0.27	inactive
FLNB	-0.613	-0.211	-0.888	inactive
PSORS1C1	1.16	0.983	1.8	inactive
MAGEB5	0.0911	-0.136	0.703	inactive
ZNF667	-0.19	-0.123	-0.38	inactive
ZFP37	0.733	0.354	0.986	inactive
STGC3 (retired record)	1.05	1.21	1.52	inactive
CCDC183	-0.665	0.484	0.0145	inactive
F2RL2	-1.22	0.154	-0.372	inactive
NPIPB1P	1.07	1.37	1.68	inactive
UNC5CL	0.219	0.212	0.313	inactive
CLTC	-1.55	-1.73	-1.16	inactive
ZNF141	-1.78	-1.59	-1.3	inactive
SCT	0.944	-0.543	-0.422	inactive
AMH	0.352	-1.12	-0.504	inactive
OR4D5	1.48	1.71	1.7	inactive
KLHL21	0.131	0.391	-1.46	inactive
HRNR	1.32	0.833	1.2	inactive
RPS6KA1	-0.161	0.453	1.87	inactive
C1orf216	-0.625	-0.68	0.0509	inactive
POLA2	-0.312	-1.13	-0.805	inactive
POLH	1.13	-0.0893	0.327	inactive
PANK4	-1.21	-0.602	-0.78	inactive
LOC389341 (retired record)	-0.862	-0.187	-0.325	inactive
LOC442386 (retired record)	-0.553	0.436	-0.197	inactive
C22orf42	0.715	-0.139	1.13	inactive
ANKRD40	-0.867	-0.0821	-0.298	inactive
SURF1	1.01	-1.38	-0.218	inactive
TRPM5	0.604	-0.268	0.514	inactive
SIAH3	-0.581	-0.675	-0.835	inactive
